Experimental data from the supplement of paper PMC8728848.
The other results are listed elsewhere or left out.

Experiments:
Test in all cases: glycan array binding signal (z-score within array); higher = stronger binding
Conditions in all cases: glycan notation: IUPAC condensed, linker removed
GlcNAc(b1-3)Gal(b1-4)Glc = target: GlcNAc(b1-3)Gal(b1-4)Glc
Procedure, shortened: (§1)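 The Consortium for Functional Glycomics database supplied 3228 glycan arrays, of which those lacking an available protein sequence were dropped. The binding signal, a within-array Z-score, was averaged across arrays of the same protein sequence and across linkers. Negative scores can be read as non-binding.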

[1] = target: GlcNAc(b1-3)Gal(b1-4)GlcNAc
Procedure, shortened: as §1

[2] = target: GlcNAc(b1-3)Gal(b1-4)GlcNAc(b1-2)Man(a1-3)[GlcNAc(b1-3)Gal(b1-4)GlcNAc(b1-2)Man(a1-6)]Man(b1-4)GlcNAc(b1-4)GlcNAc
Procedure, shortened: as §1

[3] = target: GlcNAc(b1-3)Gal(b1-4)GlcNAc(b1-2)Man(a1-3)[GlcNAc(b1-3)Gal(b1-4)GlcNAc(b1-2)Man(a1-6)]Man(b1-4)GlcNAc(b1-4)[Fuc(a1-6)]GlcNAc
Procedure, shortened: as §1

[4] = target: GlcNAc(b1-3)Gal(b1-4)GlcNAc(b1-2)[GlcNAc(b1-3)Gal(b1-4)GlcNAc(b1-6)]Man(a1-6)[GlcNAc(b1-3)Gal(b1-4)GlcNAc(b1-2)Man(a1-3)]Man(b1-4)GlcNAc(b1-4)GlcNAc
Procedure, shortened: as §1

[5] = target: GlcNAc(b1-3)Gal(b1-4)GlcNAc(b1-3)Gal(b1-4)GlcNAc
Procedure, shortened: as §1

[6] = target: GlcNAc(b1-3)Gal(b1-4)GlcNAc(b1-3)Gal(b1-4)GlcNAc(b1-2)Man(a1-3)[GlcNAc(b1-3)Gal(b1-4)GlcNAc(b1-3)Gal(b1-4)GlcNAc(b1-2)Man(a1-6)]Man(b1-4)GlcNAc(b1-4)GlcNAc
Procedure, shortened: as §1

[7] = target: GlcNAc(b1-3)Gal(b1-4)GlcNAc(b1-3)Gal(b1-4)GlcNAc(b1-2)Man(a1-3)[GlcNAc(b1-3)Gal(b1-4)GlcNAc(b1-3)Gal(b1-4)GlcNAc(b1-2)Man(a1-6)]Man(b1-4)GlcNAc(b1-4)[Fuc(a1-6)]GlcNAc
Procedure, shortened: as §1

[8] = target: GlcNAc(b1-3)Gal(b1-4)GlcNAc(b1-3)Gal(b1-4)GlcNAc(b1-2)[GlcNAc(b1-3)Gal(b1-4)GlcNAc(b1-3)Gal(b1-4)GlcNAc(b1-6)]Man(a1-6)[GlcNAc(b1-3)Gal(b1-4)GlcNAc(b1-3)Gal(b1-4)GlcNAc(b1-2)Man(a1-3)]Man(b1-4)GlcNAc(b1-4)[Fuc(a1-6)]GlcNAc
Procedure, shortened: as §1

[9] = target: GlcNAc(b1-3)Gal(b1-4)GlcNAc(b1-3)Gal(b1-4)GlcNAc(b1-3)Gal(b1-4)GlcNAc(b1-2)Man(a1-3)[GlcNAc(b1-3)Gal(b1-4)GlcNAc(b1-3)Gal(b1-4)GlcNAc(b1-3)Gal(b1-4)GlcNAc(b1-2)Man(a1-6)]Man(b1-4)GlcNAc(b1-4)GlcNAc
Procedure, shortened: as §1

[10] = target: GlcNAc(b1-3)Gal(b1-4)GlcNAc(b1-3)Gal(b1-4)GlcNAc(b1-3)Gal(b1-4)GlcNAc(b1-2)Man(a1-3)[GlcNAc(b1-3)Gal(b1-4)GlcNAc(b1-3)Gal(b1-4)GlcNAc(b1-3)Gal(b1-4)GlcNAc(b1-2)Man(a1-6)]Man(b1-4)GlcNAc(b1-4)[Fuc(a1-6)]GlcNAc
Procedure, shortened: as §1

[11] = target: GlcNAc(b1-3)Gal(b1-4)GlcNAc(b1-3)Gal(b1-4)GlcNAc(b1-3)Gal(b1-4)GlcNAc(b1-2)[GlcNAc(b1-3)Gal(b1-4)GlcNAc(b1-3)Gal(b1-4)GlcNAc(b1-3)Gal(b1-4)GlcNAc(b1-6)]Man(a1-6)[GlcNAc(b1-3)Gal(b1-4)GlcNAc(b1-3)Gal(b1-4)GlcNAc(b1-3)Gal(b1-4)GlcNAc(b1-2)Man(a1-3)]Man(b1-4)GlcNAc(b1-4)[Fuc(a1-6)]GlcNAc
Procedure, shortened: as §1

[12] = target: GlcNAc(b1-3)Gal(b1-4)GlcNAc(b1-3)Gal(b1-4)GlcNAc(b1-3)Gal(b1-4)GlcNAc(b1-3)Gal(b1-4)GlcNAc(b1-2)Man(a1-3)[GlcNAc(b1-3)Gal(b1-4)GlcNAc(b1-3)Gal(b1-4)GlcNAc(b1-3)Gal(b1-4)GlcNAc(b1-3)Gal(b1-4)GlcNAc(b1-2)Man(a1-6)]Man(b1-4)GlcNAc(b1-4)GlcNAc
Procedure, shortened: as §1

[13] = target: GlcNAc(b1-3)Gal(b1-4)GlcNAc(b1-3)Gal(b1-4)GlcNAc(b1-3)Gal(b1-4)GlcNAc(b1-3)Gal(b1-4)GlcNAc(b1-2)Man(a1-3)[GlcNAc(b1-3)Gal(b1-4)GlcNAc(b1-3)Gal(b1-4)GlcNAc(b1-3)Gal(b1-4)GlcNAc(b1-3)Gal(b1-4)GlcNAc(b1-2)Man(a1-6)]Man(b1-4)GlcNAc(b1-4)[Fuc(a1-6)]GlcNAc
Procedure, shortened: as §1

[14] = target: GlcNAc(b1-3)Gal(b1-4)GlcNAc(b1-3)Gal(b1-4)GlcNAc(b1-3)Gal(b1-4)GlcNAc(b1-3)Gal(b1-4)GlcNAc(b1-2)[GlcNAc(b1-3)Gal(b1-4)GlcNAc(b1-3)Gal(b1-4)GlcNAc(b1-3)Gal(b1-4)GlcNAc(b1-3)Gal(b1-4)GlcNAc(b1-6)]Man(a1-6)[GlcNAc(b1-3)Gal(b1-4)GlcNAc(b1-3)Gal(b1-4)GlcNAc(b1-3)Gal(b1-4)GlcNAc(b1-3)Gal(b1-4)GlcNAc(b1-2)Man(a1-3)]Man(b1-4)GlcNAc(b1-4)[Fuc(a1-6)]GlcNAc
Procedure, shortened: as §1

[15] = target: GlcNAc(b1-3)Gal(b1-4)GlcNAc(b1-3)Gal(b1-4)GlcNAc(b1-3)GalNAc
Procedure, shortened: as §1

[16] = target: GlcNAc(b1-3)Gal(b1-4)GlcNAc(b1-3)GalNAc
Procedure, shortened: as §1

[17] = target: GlcNAc(b1-3)Gal(b1-4)GlcNAc(b1-3)[GlcNAc(b1-3)Gal(b1-4)GlcNAc(b1-3)]GalNAc
Procedure, shortened: as §1

[18] = target: GlcNAc(b1-3)Gal(b1-4)GlcNAc(b1-6)[Gal(b1-3)]GalNAc
Procedure, shortened: as §1

[19] = target: GlcNAc(b1-3)Gal(b1-4)GlcNAc(b1-6)[GlcNAc(b1-3)Gal(b1-3)]GalNAc
Procedure, shortened: as §1

[20] = target: GlcNAc(b1-3)Gal(b1-4)GlcNAc(b1-6)[GlcNAc(b1-3)]Gal(b1-4)GlcNAc
Procedure, shortened: as §1

GlcNAc(b1-3)GalNAc = target: GlcNAc(b1-3)GalNAc
Procedure, shortened: as §1

GlcNAc(b1-3)Man = target: GlcNAc(b1-3)Man
Procedure, shortened: as §1

[21] = target: GlcNAc(b1-3)[GlcNAc(b1-4)][GlcNAc(b1-6)]GlcNAc
Procedure, shortened: as §1

[22] = target: GlcNAc(b1-3)[GlcNAc(b1-6)]Gal(b1-4)GlcNAc
Procedure, shortened: as §1

[23] = target: GlcNAc(b1-3)[GlcNAc(b1-6)]GalNAc
Procedure, shortened: as §1

[24] = target: GlcNAc(b1-4)Gal(b1-4)GlcNAc
Procedure, shortened: as §1

GlcNAc(b1-4)GlcNAc = target: GlcNAc(b1-4)GlcNAc
Procedure, shortened: as §1

[25] = target: GlcNAc(b1-4)GlcNAc(b1-4)GlcNAc
Procedure, shortened: as §1

[26] = target: GlcNAc(b1-4)GlcNAc(b1-4)GlcNAc(b1-4)GlcNAc(b1-4)GlcNAc
Procedure, shortened: as §1

[27] = target: GlcNAc(b1-4)GlcNAc(b1-4)GlcNAc(b1-4)GlcNAc(b1-4)GlcNAc(b1-4)GlcNAc
Procedure, shortened: as §1

[28] = target: GlcNAc(b1-4)[GlcNAc(b1-6)]GalNAc
Procedure, shortened: as §1

[29] = target: GlcNAc(b1-6)Gal(b1-4)GlcNAc
Procedure, shortened: as §1

GlcNAc(b1-6)GalNAc = target: GlcNAc(b1-6)GalNAc
Procedure, shortened: as §1

[30] = target: GlcNAc6S(b1-3)Gal(b1-4)GlcNAc
Procedure, shortened: as §1

Kdn(a2-3)Gal(b1-3)GalNAc = target: Kdn(a2-3)Gal(b1-3)GalNAc
Procedure, shortened: as §1

Kdn(a2-3)Gal(b1-3)GlcNAc = target: Kdn(a2-3)Gal(b1-3)GlcNAc
Procedure, shortened: as §1

Kdn(a2-3)Gal(b1-4)Glc = target: Kdn(a2-3)Gal(b1-4)Glc
Procedure, shortened: as §1

Kdn(a2-3)Gal(b1-4)GlcNAc = target: Kdn(a2-3)Gal(b1-4)GlcNAc
Procedure, shortened: as §1

[31] = target: Kdn(a2-3)Gal(b1-4)[Fuc(a1-3)]GlcNAc
Procedure, shortened: as §1

Kdn(a2-6)Gal(b1-4)GlcNAc = target: Kdn(a2-6)Gal(b1-4)GlcNAc
Procedure, shortened: as §1

[32] = target: Man(a1-2)Man(a1-2)Man(a1-3)Man
Procedure, shortened: as §1

[33] = target: Man(a1-2)Man(a1-2)Man(a1-6)[Man(a1-3)]Man
Procedure, shortened: as §1

Man(a1-2)Man(a1-3)Man = target: Man(a1-2)Man(a1-3)Man
Procedure, shortened: as §1

[34] = target: Man(a1-2)Man(a1-3)[Man(a1-2)Man(a1-6)]Man
Procedure, shortened: as §1

B1: EUL D1A second (Oryza sativa) (protein)
chain: GAATACTIGGVPVHTVRVFSAAGEDYCLTVRNGTACLAPKNPRDDYQHWIKDMRHSNKIRDEEGYPAFALVNKVTGEAIKHSTGQGHPVKLVPYNPEYQDESVLWTESKDVGKGFRCIRMVNNIYLNFDAFHGDKDHGGIHDGTEIVLWKWCEGDNQRWKILPWILEQKLISEEDLNSAVDHHHHHH
glycan array binding signal (z-score) (GlcNAc(b1-3)Gal(b1-4)Glc): -0.312 | glycan array binding signal (z-score) [1]: -0.23 | glycan array binding signal (z-score) [2]: -0.922 | glycan array binding signal (z-score) [3]: 0.492 | glycan array binding signal (z-score) [4]: 0.98 | glycan array binding signal (z-score) [5]: 0.92 | glycan array binding signal (z-score) [6]: 0.61 | glycan array binding signal (z-score) [7]: 1.05 | glycan array binding signal (z-score) [8]: 1.27 | glycan array binding signal (z-score) [9]: 0.539 | glycan array binding signal (z-score) [10]: 1.65 | glycan array binding signal (z-score) [11]: 0.63 | glycan array binding signal (z-score) [12]: 0.254 | glycan array binding signal (z-score) [13]: 0.38 | glycan array binding signal (z-score) [14]: 1.29 | glycan array binding signal (z-score) [15]: 1.22 | glycan array binding signal (z-score) [16]: 0.388 | glycan array binding signal (z-score) [17]: 1.31 | glycan array binding signal (z-score) [18]: 0.183 | glycan array binding signal (z-score) [19]: -0.666 | glycan array binding signal (z-score) [20]: -0.554 | glycan array binding signal (z-score) (GlcNAc(b1-3)GalNAc): -1.32 | glycan array binding signal (z-score) (GlcNAc(b1-3)Man): 0.35 | glycan array binding signal (z-score) [21]: -0.48 | glycan array binding signal (z-score) [22]: -0.302 | glycan array binding signal (z-score) [23]: -0.106 | glycan array binding signal (z-score) [24]: -0.637 | glycan array binding signal (z-score) (GlcNAc(b1-4)GlcNAc): -0.613 | glycan array binding signal (z-score) [25]: 1.64 | glycan array binding signal (z-score) [26]: -1.07 | glycan array binding signal (z-score) [27]: 0.278 | glycan array binding signal (z-score) [28]: -0.443 | glycan array binding signal (z-score) [29]: 0.582 | glycan array binding signal (z-score) (GlcNAc(b1-6)GalNAc): 0.18 | glycan array binding signal (z-score) [30]: -0.146 | glycan array binding signal (z-score) (Kdn(a2-3)Gal(b1-3)GalNAc): 0.8 | glycan array binding signal (z-score) (Kdn(a2-3)Gal(b1-3)GlcNAc): -0.321 | glycan array binding signal (z-score) (Kdn(a2-3)Gal(b1-4)Glc): -0.642 | glycan array binding signal (z-score) (Kdn(a2-3)Gal(b1-4)GlcNAc): 1.56 | glycan array binding signal (z-score) [31]: 0.269 | glycan array binding signal (z-score) (Kdn(a2-6)Gal(b1-4)GlcNAc): -1.38 | glycan array binding signal (z-score) [32]: 0.075 | glycan array binding signal (z-score) [33]: -0.112 | glycan array binding signal (z-score) (Man(a1-2)Man(a1-3)Man): -0.866 | glycan array binding signal (z-score) [34]: -1.75
